The values that follow come from patent publication US11339442B2, “Methods of detecting insulator dysfunction and oncogene activation for screening, diagnosis and treatment of patients in need thereof” (THE GENERAL HOSPITAL CORPORATION, priority 2015, dated 2022).

This data set has as its target T1, CTCF (Homo sapiens) (UniProt P49711).
T1 sequence (looked up, limits assumed): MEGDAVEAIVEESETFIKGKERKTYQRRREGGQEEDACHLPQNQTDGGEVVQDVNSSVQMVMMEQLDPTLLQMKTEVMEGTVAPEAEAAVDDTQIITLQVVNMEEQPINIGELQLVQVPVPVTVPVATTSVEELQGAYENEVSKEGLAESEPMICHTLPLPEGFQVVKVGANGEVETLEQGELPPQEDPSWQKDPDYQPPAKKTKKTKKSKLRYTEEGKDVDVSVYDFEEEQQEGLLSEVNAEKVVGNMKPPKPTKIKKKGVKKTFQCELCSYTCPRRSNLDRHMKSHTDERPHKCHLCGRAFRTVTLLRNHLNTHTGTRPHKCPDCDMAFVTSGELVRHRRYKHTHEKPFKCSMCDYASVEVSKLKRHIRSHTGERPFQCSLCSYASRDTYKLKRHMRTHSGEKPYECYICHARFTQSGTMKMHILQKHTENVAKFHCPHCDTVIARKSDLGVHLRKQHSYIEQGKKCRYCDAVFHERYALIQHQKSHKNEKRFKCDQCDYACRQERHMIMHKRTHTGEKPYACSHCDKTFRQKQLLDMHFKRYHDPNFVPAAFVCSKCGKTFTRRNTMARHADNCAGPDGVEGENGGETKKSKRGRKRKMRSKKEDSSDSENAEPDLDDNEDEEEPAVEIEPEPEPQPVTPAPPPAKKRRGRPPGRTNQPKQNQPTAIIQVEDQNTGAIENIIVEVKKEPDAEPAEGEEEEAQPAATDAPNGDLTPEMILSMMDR
The experiment in a line: binding assay. The conditions noted are these: protein in cells.

Where cells or extracts were used, other partners may take part. Weaker means in comparison with the reference protein, sequence or condition of that experiment. Where a protein sequence is shown, tags need not be part of it.

On to “ATGCAGCTAGATGGCGCTC (double strand) [PDGFRA boundary CTCF motif, hypermethylated (IDH mutant)]”, for which the binding result (5mC at the CpG in the motif (partial, fraction of alleles), ChIP-qPCR, occupancy reduced 30-50% in IDH mutant tumors and models vs wildtype, about 3-fold lower in BT142, 5-aza raised occupancy about 1.7-fold) is “binds more weakly”. As for “ATGCAGCTAGATGGCGCTC (double strand) [PDGFRA boundary CTCF motif (unmethylated, IDH wildtype)]”, under “ChIP-seq and ChIP-qPCR in IDH wildtype gliomas and gliomaspheres”, the binding result was “binds”.
